We go through 1 substance from paper PMC4490383.

The chains behind the UniProt entries cited, without tags or fusion partners.
UniProt O14737: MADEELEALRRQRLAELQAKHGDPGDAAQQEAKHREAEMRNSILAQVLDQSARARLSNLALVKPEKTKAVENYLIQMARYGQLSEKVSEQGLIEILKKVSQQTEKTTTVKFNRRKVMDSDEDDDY
UniProt O15379: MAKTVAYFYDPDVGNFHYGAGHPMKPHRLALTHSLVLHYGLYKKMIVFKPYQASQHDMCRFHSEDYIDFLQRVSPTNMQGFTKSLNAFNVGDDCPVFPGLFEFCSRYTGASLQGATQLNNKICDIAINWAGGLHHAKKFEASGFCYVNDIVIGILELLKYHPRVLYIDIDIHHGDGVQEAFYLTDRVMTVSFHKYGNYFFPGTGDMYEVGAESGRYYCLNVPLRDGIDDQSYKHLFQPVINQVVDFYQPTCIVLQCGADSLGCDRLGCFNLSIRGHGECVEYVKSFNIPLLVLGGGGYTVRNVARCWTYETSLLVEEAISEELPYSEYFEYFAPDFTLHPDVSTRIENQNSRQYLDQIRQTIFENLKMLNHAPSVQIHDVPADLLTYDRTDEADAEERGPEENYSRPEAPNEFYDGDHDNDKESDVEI

The target of the experiment is PDCD5 wild type (construct not told in the main text) (UniProt O14737). The experiment in a line: affinity purification with mass spectrometry; immunopurified PDCD5 complex, trypsin digest, LC-MS/MS (LTQ Orbitrap XL).

Results are given in words; binding and its absence hold for the method and conditions named. In cells and extracts the contact can be indirect. These calls come from enrichment with a bait or labelling near it, and not all partners need be listed.

In the case of “HDAC3 (construct not told in the main text; supplementary experiments) (from UniProt O15379 1-428)”, the binding result is “binds”.
